The results in this text go back to doi:10.1101/2023.11.28.569054.

By UniProt entry, the sequences of proteins in these tests, tags left out. Where a name states a change or a piece, a line headed by the entry shows the natural chain unless it says otherwise. Residues count along the entry.
UniProt Q969V3, residues 43-563: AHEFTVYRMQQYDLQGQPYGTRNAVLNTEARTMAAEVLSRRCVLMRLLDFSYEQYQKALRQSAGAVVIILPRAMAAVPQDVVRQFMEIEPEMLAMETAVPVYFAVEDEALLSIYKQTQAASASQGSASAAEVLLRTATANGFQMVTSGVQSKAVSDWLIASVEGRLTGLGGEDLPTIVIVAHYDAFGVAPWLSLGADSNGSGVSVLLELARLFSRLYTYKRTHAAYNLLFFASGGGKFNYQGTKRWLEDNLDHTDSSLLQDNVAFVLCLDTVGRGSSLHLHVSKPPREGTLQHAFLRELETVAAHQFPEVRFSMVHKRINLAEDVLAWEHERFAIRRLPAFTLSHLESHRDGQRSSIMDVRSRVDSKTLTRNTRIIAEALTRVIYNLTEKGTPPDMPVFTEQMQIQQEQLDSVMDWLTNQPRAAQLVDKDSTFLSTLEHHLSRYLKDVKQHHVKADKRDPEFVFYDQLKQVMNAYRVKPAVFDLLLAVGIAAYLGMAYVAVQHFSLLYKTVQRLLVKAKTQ
UniProt Q9BVK8: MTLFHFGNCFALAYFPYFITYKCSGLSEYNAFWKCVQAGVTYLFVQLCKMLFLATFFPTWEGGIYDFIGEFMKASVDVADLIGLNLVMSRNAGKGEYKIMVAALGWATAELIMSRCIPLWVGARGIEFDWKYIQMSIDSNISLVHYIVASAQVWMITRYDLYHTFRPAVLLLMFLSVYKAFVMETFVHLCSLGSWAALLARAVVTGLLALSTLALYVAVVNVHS
UniProt Q5UCC4, residues 26-262: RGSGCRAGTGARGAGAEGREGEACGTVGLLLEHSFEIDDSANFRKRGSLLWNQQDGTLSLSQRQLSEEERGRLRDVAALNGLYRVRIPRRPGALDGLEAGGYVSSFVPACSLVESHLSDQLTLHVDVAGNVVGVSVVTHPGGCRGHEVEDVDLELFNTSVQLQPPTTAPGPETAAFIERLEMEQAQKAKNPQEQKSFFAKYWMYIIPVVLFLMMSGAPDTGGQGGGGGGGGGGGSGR
UniProt Q9UM00: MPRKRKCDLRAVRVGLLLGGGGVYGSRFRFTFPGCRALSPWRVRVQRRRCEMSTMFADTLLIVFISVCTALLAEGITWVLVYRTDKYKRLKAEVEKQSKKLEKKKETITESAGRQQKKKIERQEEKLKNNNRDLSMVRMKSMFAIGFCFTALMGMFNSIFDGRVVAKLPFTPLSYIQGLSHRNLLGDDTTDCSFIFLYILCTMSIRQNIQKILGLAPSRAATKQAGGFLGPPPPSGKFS
UniProt Q9BUV8: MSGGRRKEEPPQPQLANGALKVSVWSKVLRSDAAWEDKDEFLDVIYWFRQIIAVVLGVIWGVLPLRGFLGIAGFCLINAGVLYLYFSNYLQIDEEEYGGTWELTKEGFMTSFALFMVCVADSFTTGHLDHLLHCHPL

One assay has as its target NCLN-ALFA (human) (UniProt Q969V3). Nature of the assay: cross-linking.
The target in the next assay is TMEM147-ALFA (human) (UniProt Q9BVK8). Nature of the assay: cross-linking.
In another assay the target is T1, GFP-EMC2 (human) (UniProt Q15006).
T1 sequence: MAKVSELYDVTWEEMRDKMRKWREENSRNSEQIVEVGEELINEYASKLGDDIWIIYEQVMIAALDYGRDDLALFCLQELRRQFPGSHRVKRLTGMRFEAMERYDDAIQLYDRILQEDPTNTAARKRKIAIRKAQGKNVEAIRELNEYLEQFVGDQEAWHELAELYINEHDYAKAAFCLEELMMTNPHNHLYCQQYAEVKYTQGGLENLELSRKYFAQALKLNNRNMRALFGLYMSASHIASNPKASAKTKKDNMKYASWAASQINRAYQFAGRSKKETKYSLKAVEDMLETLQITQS
Briefly: co-IP.

Results are given in words; binding and its absence hold for the method and conditions named. In cells and extracts the contact can be indirect. Some binding calls cover weakened binding; strength is not graded here. For part of these data: Where a sequence is shown, tags or fusion partners need not be part of it.

As to EMC10 (from UniProt Q5UCC4 26-262), the binding result with NCLN-ALFA (human) and with TMEM147-ALFA (human) was “binds” throughout.

With “GET and EMC like (GEL) complex (from UniProt Q9UM00;Q9BUV8)”, the binding result in the assay with GFP-EMC2 (human) is “binds”.
